Experimental data from article doi:10.1101/2021.01.08.425919.
These are yes or no findings as the source states them, for the method shown. For some of these results: Binding seen in cells or lysates may run through a third protein. Some entries that bind do so weakly or less than the wild type. For some of these results: Tags and fused reporters may be left off the sequences shown.

Sequences of proteins named here, by UniProt entry; tags and fusion partners are left off.
UniProt O60016: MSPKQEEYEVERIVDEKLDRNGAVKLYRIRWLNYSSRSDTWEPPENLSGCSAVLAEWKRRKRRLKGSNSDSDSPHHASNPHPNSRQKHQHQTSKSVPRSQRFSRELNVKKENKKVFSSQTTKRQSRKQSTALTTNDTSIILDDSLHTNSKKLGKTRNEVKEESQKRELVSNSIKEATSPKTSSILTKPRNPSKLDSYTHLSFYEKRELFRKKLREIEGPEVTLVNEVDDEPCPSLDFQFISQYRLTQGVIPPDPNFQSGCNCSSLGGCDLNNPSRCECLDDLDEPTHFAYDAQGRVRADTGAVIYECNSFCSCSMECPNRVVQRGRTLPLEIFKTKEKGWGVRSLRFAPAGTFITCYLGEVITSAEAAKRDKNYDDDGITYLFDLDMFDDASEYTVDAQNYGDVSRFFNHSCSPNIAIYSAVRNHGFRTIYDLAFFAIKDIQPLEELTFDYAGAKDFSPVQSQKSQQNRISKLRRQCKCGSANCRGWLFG
UniProt P46595: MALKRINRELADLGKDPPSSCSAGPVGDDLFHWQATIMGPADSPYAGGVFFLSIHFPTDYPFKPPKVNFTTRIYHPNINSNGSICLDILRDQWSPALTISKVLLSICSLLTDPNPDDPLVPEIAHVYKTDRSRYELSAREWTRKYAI

Key:
[1] = biological target: recombinant Clr4 (Flag-Clr4 and Myc-Clr4 copies) (S. pombe) (UniProt O60016); experiment: pull-down
Cul4-GFP (S. pombe) = biological target: T1, Cul4-GFP (S. pombe) (UniProt O14122); experiment: co-IP
T1 sequence: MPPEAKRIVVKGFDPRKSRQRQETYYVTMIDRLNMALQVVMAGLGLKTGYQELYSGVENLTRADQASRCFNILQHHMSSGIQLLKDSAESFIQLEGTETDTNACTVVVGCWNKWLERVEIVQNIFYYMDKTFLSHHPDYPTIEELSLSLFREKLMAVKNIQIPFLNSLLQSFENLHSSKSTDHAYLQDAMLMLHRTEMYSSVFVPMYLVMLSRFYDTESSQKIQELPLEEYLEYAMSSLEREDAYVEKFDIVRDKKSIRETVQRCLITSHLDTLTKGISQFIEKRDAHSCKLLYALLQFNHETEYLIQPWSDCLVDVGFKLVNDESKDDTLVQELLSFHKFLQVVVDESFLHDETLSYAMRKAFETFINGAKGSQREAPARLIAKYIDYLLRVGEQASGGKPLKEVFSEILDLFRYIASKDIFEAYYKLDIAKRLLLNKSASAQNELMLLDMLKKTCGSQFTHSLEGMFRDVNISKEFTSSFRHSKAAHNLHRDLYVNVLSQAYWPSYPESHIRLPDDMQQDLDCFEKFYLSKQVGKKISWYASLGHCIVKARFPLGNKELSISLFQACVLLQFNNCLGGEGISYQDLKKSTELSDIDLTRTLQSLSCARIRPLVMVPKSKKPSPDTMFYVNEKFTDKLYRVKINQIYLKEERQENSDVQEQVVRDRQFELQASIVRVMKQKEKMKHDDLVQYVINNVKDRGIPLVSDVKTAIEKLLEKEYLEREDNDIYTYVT

Flag-Raf1 (S. pombe) = biological target: T2, Flag-Raf1 (S. pombe) (UniProt O74910); experiment: co-IP
T2 sequence: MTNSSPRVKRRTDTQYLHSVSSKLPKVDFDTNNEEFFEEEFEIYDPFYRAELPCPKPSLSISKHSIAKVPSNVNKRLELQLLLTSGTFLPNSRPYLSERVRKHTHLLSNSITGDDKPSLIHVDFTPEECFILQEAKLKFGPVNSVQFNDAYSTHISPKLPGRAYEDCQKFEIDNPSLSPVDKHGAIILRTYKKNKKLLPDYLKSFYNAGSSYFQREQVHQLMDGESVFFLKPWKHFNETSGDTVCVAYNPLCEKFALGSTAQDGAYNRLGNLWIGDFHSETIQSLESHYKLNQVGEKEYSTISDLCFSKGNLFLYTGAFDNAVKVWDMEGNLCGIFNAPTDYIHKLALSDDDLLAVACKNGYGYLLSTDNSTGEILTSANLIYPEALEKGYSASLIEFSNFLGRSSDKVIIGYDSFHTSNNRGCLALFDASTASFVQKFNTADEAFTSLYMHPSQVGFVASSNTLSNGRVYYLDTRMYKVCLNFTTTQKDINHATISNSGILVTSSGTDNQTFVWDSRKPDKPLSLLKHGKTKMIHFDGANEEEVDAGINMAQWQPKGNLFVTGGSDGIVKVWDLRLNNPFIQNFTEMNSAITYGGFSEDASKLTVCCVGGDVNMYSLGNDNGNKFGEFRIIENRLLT

Raf2-Flag (S. pombe) = biological target: T3, Raf2-Flag (S. pombe) (UniProt O74560); experiment: co-IP
T3 sequence: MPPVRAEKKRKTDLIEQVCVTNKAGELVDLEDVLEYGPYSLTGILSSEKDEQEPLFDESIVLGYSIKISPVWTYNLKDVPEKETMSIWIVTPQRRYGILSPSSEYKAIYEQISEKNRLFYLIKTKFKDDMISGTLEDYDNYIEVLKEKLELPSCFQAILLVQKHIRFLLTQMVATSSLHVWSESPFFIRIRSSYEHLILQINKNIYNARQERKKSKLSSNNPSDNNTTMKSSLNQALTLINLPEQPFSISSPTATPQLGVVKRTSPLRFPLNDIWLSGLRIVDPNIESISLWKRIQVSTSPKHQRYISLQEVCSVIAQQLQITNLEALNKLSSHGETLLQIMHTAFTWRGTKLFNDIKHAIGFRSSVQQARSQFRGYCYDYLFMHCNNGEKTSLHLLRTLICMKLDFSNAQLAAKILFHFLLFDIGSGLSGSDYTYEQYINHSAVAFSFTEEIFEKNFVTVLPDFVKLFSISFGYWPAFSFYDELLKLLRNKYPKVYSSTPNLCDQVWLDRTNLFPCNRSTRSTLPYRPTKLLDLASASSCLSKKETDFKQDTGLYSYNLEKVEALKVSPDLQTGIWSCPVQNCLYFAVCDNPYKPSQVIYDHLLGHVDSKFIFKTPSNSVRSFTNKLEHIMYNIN

## recombinant Clr4 (Flag-Clr4 and Myc-Clr4 copies) (from UniProt O60016 1-490) (enzyme)
[1]
  binding: binds weakly

## E2 ubiquitin conjugating enzyme Ubc4 (from UniProt P46595 1-147)
Cul4-GFP (S. pombe)
  binding: binds
Flag-Raf1 (S. pombe)
  binding: binds
Raf2-Flag (S. pombe)
  binding: binds
